PubChem BioAssay AID743121 – NCATS – 2013

Test: 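Knock-downs that sensitise breast cancer cells to camptothecin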 (primary screen)
System: MDA-MB-231 cells, a human breast cancer line
Knock-down reagent: single siRNA against human genes, 20 nM siRNA (0.8 pmol per well)
Duration: 120 h (drug added 48 h after transfection, read 72 h later)
Treatment: camptothecin 20 nM (about EC30) for 72 h; vehicle 0.1% DMSO in parallel plates
Detection: 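CellTiter-Glo ATP signal, scaled to control siRNA as percent viability; sensitisation given as log2 of untreated divided by camptothecin-treated viability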
Scale: log2 vehicle/camptothecin viability: higher = stronger sensitisation to camptothecin; viability with camptothecin and viability without drug: higher = more viable cells
Hit rule: 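Active genes have an RSA gene-level p-value below 0.001, computed from the ratios of their separate siRNAs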
The deposit covers about 26,000 reagents; shown is a part drawn at random. 167 of all reagents (0.63%) count as active. 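Calls are per gene from RSA p-values that are not deposited; an individual active-marked siRNA can sensitise only weakly.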 Unmarked entries are inactive. Reagents against one gene are numbered here.

Gene	reagent	log2 vehicle/camptothecin viability	viability with camptothecin (% of control)	viability without drug (% of control)
ZIC1	1	0.00117	95.5	95.6
ZIC1	2	-0.405	96.7	73
ZIC1	3	0.00224	110	110
NOP53	1	-0.571	85.3	57.4
NOP53	2	-0.412	78.2	58.8
NOP53	3	-0.473	90.1	64.9
ATP12A	1	-0.23	63.8	54.4
ATP12A	2	-0.205	105	90.9
ATP12A	3	0.0927	79.9	85.2
ATP12A	4	-0.139	48.5	44.1
PTH	1	-0.178	129	114
PTH	2	0.0187	38.9	39.4
PTH	3	-0.0112	82	81.4
PTH	4	-0.149	70.7	63.8
CHAF1B	1	-0.224	53.2	45.6
CHAF1B	2	-0.377	24.6	19
CHAF1B	3	0.13	77.9	85.3
SCYL3	1	-0.651	61.9	39.5
SCYL3	2	-0.514	65.7	46
SCYL3	3	-0.392	87	66.3
SCYL3	4	-0.42	96.2	71.9
SCYL3	5	-0.269	118	98
GDF1	1	-0.411	90.4	68
GDF1	2	-0.526	91.9	63.8
GDF1	3	0.313	60	74.5
PROS1	1	-0.313	92.7	74.6
PROS1	2	-0.382	72.9	55.9
PROS1	3	-0.24	131	111
PROS1	4	-0.0426	89.5	86.9
PRKDC	1	-0.00688	92.4	92
PRKDC	2	-0.446	70.6	51.8
PRKDC	3	-0.106	94	87.3
PRKDC	4	-0.0161	63.3	62.5
DHCR24	1	-0.26	131	109
DHCR24	2	0.164	93.8	105
DHCR24	3	0.0608	109	114
DHCR24	4	0.185	84.9	96.5
PRPF8	1	-0.533	23	15.9
PRPF8	2	-0.512	27.4	19.2
PRPF8	3	-0.748	25.2	15
PRPF8	4	0.0868	6.36	6.75
ERP44	1	-0.287	116	95.2
ERP44	2	0.221	87.7	102
ERP44	3	-0.196	90.9	79.3
ERP44	4	-0.112	103	95.2
DDX54	1	-0.119	25.7	23.6
DDX54	2	-0.0739	53.1	50.4
DDX54	3	-0.348	38.8	30.5
RAB4A	1	0.192	59.2	67.6
RAB4A	2	-0.337	98	77.6
RAB4A	3	-0.432	95.1	70.5
RAB4A	4	-0.125	56.4	51.7

Entries listed so far whose gene name begins with N or n (3):
Gene	reagent	log2 vehicle/camptothecin viability	viability with camptothecin (% of control)	viability without drug (% of control)
NOP53	1	-0.571	85.3	57.4
NOP53	2	-0.412	78.2	58.8
NOP53	3	-0.473	90.1	64.9

The results go on.
Gene	reagent	log2 vehicle/camptothecin viability	viability with camptothecin (% of control)	viability without drug (% of control)
TBC1D23	1	-0.247	44.5	37.5
TBC1D23	2	-0.00799	71	70.6
TBC1D23	3	0.0778	84.5	89.2
TBC1D23	4	0.0386	53.4	54.8
PICALM	1	-0.529	101	69.9
PICALM	2	-0.562	108	73.1
PICALM	3	-0.103	105	98
PICALM	4	-0.507	89.1	62.7
MRGPRX1	1	-0.423	78.5	58.5
MRGPRX1	2	0.286	82.5	101
MRGPRX1	3	-0.202	68.6	59.7
MRGPRX1	4	-0.149	67.8	61.2
TPSD1	1	-0.0715	88.4	84.2
TPSD1	2	-0.254	80.1	67.2
TPSD1	3	0.562	45.5	67.2
TPSD1	4	-0.395	72.8	55.4
DCLK2	1	-0.262	115	95.5
DCLK2	2	0.69	21.4	34.5
DCLK2	3	-0.608	37.5	24.6
DCLK2	4	0.0226	52.4	53.2
UCHL3	1	0.0786	80.7	85.3
UCHL3	2	-0.153	98.4	88.5
UCHL3	3	-0.292	56.7	46.3
UCHL3	4	-0.104	118	110
RIPK4	1	-0.0904	55	51.6
RIPK4	2	-0.128	115	105
RIPK4	3	-0.0454	13.1	12.7
RIPK4	4	-0.0754	97.1	92.2
NXN	1	-0.429	40.4	30
NXN	2	0.103	46.8	50.3
NXN	3	-0.512	84.2	59.1
OPN1MW	1	0.416	58.6	78.1
OPN1MW	2	-0.518	103	71.9
OPN1MW	3	-0.225	43.7	37.4
OPN1MW	4	-0.395	83	63.2
OPN1MW	5	-0.221	72.3	62
OPN1MW	6	0.13	40.6	44.4
